{"sequences": {"note": "The chains behind the UniProt entries cited, without tags or fusion partners. Residues count along the entry.", "UniProt Q9UDY8, residues 2-824": "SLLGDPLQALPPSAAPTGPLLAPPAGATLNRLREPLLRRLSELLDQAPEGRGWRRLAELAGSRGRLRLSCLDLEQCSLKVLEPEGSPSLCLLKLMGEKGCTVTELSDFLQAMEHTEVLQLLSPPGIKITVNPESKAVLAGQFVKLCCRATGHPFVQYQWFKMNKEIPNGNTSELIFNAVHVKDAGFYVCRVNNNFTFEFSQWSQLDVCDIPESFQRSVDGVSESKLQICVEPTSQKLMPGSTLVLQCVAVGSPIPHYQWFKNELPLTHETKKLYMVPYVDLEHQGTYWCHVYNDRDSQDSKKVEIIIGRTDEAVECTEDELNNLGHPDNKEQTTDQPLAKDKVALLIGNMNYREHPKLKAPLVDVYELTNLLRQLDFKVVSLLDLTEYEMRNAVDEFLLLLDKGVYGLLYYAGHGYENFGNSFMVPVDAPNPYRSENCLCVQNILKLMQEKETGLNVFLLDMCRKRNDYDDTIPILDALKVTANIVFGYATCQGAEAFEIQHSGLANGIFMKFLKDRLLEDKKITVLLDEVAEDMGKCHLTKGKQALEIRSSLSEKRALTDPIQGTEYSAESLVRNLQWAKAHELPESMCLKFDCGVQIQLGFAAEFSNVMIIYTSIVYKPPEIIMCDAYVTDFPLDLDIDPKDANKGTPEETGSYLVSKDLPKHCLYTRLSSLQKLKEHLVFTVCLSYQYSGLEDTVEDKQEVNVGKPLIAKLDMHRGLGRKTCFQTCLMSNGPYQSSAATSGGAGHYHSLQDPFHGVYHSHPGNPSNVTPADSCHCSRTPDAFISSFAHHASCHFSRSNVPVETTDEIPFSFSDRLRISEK"}, "source": "patent US8309523", "about": "(VIB VZW, dated 2012)", "binders": {"B1": {"name": "BCL10 (other, UniProt O95999 1-233, looked up)", "chain": "MEPTAPSLTEEDLTEVKKDALENLRVYLCEKIIAERHFDHLRAKKILSREDTEEISCRTSSRKRAGKLLDYLQENPKGLDTLVESIRREKTQNFLIQKITDEVLKLRNIKLEHLKGLKCSSCEPFPDGATNNLSRSNSDESNFSEKLRASTVMYHPEGESSTTPFFSTNSSLNLPVLEVGRTENTIFSSTTLPRPGDPGAPPLPPDLQLEEEGTCANSSEMFLPLRSRTVSRQ", "notes": "Co-precipitated from lysates of human cell lines"}}, "molecular_target": "MALT1 (endogenous, Jurkat cells) (human) (UniProt Q9UDY8)", "assay": "co-immunoprecipitation with anti-MALT1 from Jurkat cells, immunoblot", "note": "These are yes or no findings as the source states them, for the method shown. Binding seen in cells or lysates may run through a third protein. Some results given as binding are weak or reduced against the parent protein; the word gives no strength."}
{"binder": "B1", "values": [{"measurement": "binding", "value": "binds"}]}
